Laboratory results: PubChem BioAssay AID652243 (Drosophila RNAi Screening Center, 2013)

- Screen: 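Fly regulators of androgen-dependent reporter output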 (primary screen)
- Cell system: Drosophila S2R+ cells
- Knock-down reagent: long dsRNA against Drosophila genes
- Timing: 72 h (48 h, then 24 h hormone)
- Treatment: synthetic androgen R1881 at 10 nM for 24 h
- Measured: 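Firefly light from an androgen-responsive reporter and Renilla control light per well, raw and unnormalised, for each of two replicates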
- Scale: firefly reporter light: higher = more light from androgen-responsive reporter; Renilla control light: higher = more constitutive control signal (cell number, transfection)
- Rule for the call: 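Across duplicate plates, a knock-down whose log firefly/Renilla ratio shifted a set fold down or up from the GFP/LacZ control mean was a hit; the downward cut appears as both 1.5 and 3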
- Meaning of the calls: active = hit: reporter lowered or raised; inactive = no hit
The deposit covers about 24,000 reagents; below is a random part of those with a known target gene and a result. Of all reagents, 246 (1%) are marked active. 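Plates not normalised; calls are printed but the firefly/Renilla ratio behind them is not deposited; fold cut for lowering reported inconsistently.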 The raw values are shown without normalisation. The numbers tell different reagents against one gene apart. A plus sign joins genes that one reagent is predicted to hit. Not given: the amount of reagent.

| gene | reagent no. | firefly reporter light, replicate 1 | firefly reporter light, replicate 2 | Renilla control light, replicate 1 | Renilla control light, replicate 2 | call |
| --- | --- | --- | --- | --- | --- | --- |
| CG15021 | 1 | 1.31e5 | 1.64e5 | 5.58e5 | 7.96e5 | inactive |
| CG15021 | 2 | 5.81e5 | 5.44e5 | 6.43e5 | 6.68e5 | inactive |
| her (hermaphrodite) | 1 | 4.29e5 | 1.09e6 | 1.02e6 | 2.09e6 | inactive |
| Acp29AB (Accessory gland protein 29AB) | 1 | 1.63e5 | 1.92e5 | 9.45e5 | 7.86e5 | inactive |
| mtsh (mitoshell) | 1 | 1.74e5 | 1.90e5 | 1.33e6 | 1.11e6 | inactive |
| CG16825 | 1 | 1.51e5 | 2.01e5 | 1.29e6 | 1.07e6 | inactive |
| CG46301 | 1 | 8.40e5 | 9.45e5 | 1.47e6 | 1.65e6 | inactive |
| CG46301 | 2 | 8.59e5 | 6.98e5 | 8.94e5 | 8.20e5 | inactive |
| CG14907 + Mettl4 | 1 | 1.11e5 | 98330 | 1.94e6 | 1.73e6 | inactive |
| CG14907 + Mettl4 | 2 | 1.56e5 | 1.55e5 | 2.72e6 | 2.84e6 | inactive |
| CG31278 | 1 | 1.36e5 | 1.51e5 | 2.65e6 | 2.51e6 | inactive |
| muc (midline uncoordinated) | 1 | 3.08e5 | 1.79e5 | 2.66e6 | 2.01e6 | inactive |
| muc (midline uncoordinated) | 2 | 9.93e5 | 8.73e5 | 2.83e6 | 1.27e6 | inactive |
| muc (midline uncoordinated) | 3 | 6.64e5 | 8.69e5 | 8.57e5 | 9.46e5 | inactive |
| CG32572 | 1 | 3.23e5 | 3.22e5 | 3.32e6 | 3.14e6 | inactive |
| CG32572 | 2 | 4.91e5 | 4.37e5 | 3.51e6 | 2.76e6 | inactive |
| CG32572 | 3 | 7.57e5 | 9.83e5 | 1.16e6 | 9.60e5 | inactive |
| CG12817 + CG12420 | 1 | 3.28e5 | 7.84e5 | 1.00e6 | 1.90e6 | inactive |
| CG32718 | 1 | 8.83e5 | 7.67e5 | 1.62e6 | 1.16e6 | inactive |
| CG5532 | 1 | 3.77e5 | 4.89e5 | 3.27e6 | 4.30e6 | inactive |
| Rift (Riboflavin transporter) | 1 | 1.60e5 | 1.45e5 | 2.01e6 | 2.36e6 | inactive |

Next part, starting with the last 8 of the part before.
| gene | reagent no. | firefly reporter light, replicate 1 | firefly reporter light, replicate 2 | Renilla control light, replicate 1 | Renilla control light, replicate 2 | call |
| --- | --- | --- | --- | --- | --- | --- |
| muc (midline uncoordinated) | 3 | 6.64e5 | 8.69e5 | 8.57e5 | 9.46e5 | inactive |
| CG32572 | 1 | 3.23e5 | 3.22e5 | 3.32e6 | 3.14e6 | inactive |
| CG32572 | 2 | 4.91e5 | 4.37e5 | 3.51e6 | 2.76e6 | inactive |
| CG32572 | 3 | 7.57e5 | 9.83e5 | 1.16e6 | 9.60e5 | inactive |
| CG12817 + CG12420 | 1 | 3.28e5 | 7.84e5 | 1.00e6 | 1.90e6 | inactive |
| CG32718 | 1 | 8.83e5 | 7.67e5 | 1.62e6 | 1.16e6 | inactive |
| CG5532 | 1 | 3.77e5 | 4.89e5 | 3.27e6 | 4.30e6 | inactive |
| Rift (Riboflavin transporter) | 1 | 1.60e5 | 1.45e5 | 2.01e6 | 2.36e6 | inactive |
| CG18628 | 1 | 3.31e5 | 3.08e5 | 3.63e6 | 2.59e6 | inactive |
| Scp1 (Sarcoplasmic calcium-binding protein 1) | 1 | 5.41e5 | 5.48e5 | 3.82e5 | 2.56e5 | inactive |
| Scp1 (Sarcoplasmic calcium-binding protein 1) | 2 | 6.87e5 | 5.31e5 | 6.60e5 | 4.98e5 | inactive |
| Scp1 (Sarcoplasmic calcium-binding protein 1) | 3 | 1.75e5 | 1.76e5 | 4.65e5 | 3.31e5 | inactive |
| CG2004 | 1 | 3.66e5 | 5.74e5 | 3.61e6 | 3.75e6 | inactive |
| CG1324 | 1 | 70755 | 46989 | 4.24e5 | 3.83e5 | inactive |
| CG1324 | 2 | 7.46e5 | 5.29e5 | 8.73e5 | 7.49e5 | inactive |
| CG43355 + sala | 1 | 3.07e5 | 3.73e5 | 1.02e6 | 1.04e6 | inactive |
| CG8079 | 1 | 8.53e5 | 8.39e5 | 2.09e6 | 2.37e6 | inactive |
| CG8079 | 2 | 60815 | 78956 | 1.18e6 | 1.18e6 | inactive |
| CG5641 | 1 | 57458 | 68415 | 4.60e5 | 5.23e5 | inactive |
| CG7025 | 1 | 2.22e5 | 1.77e5 | 1.44e6 | 1.44e6 | inactive |
| ND-24L (NADH dehydrogenase (ubiquinone) 24 kDa subunit-like) | 1 | 2.44e5 | 2.42e5 | 3.00e6 | 2.54e6 | inactive |
| ND-24L (NADH dehydrogenase (ubiquinone) 24 kDa subunit-like) | 2 | 6.27e5 | 4.90e5 | 1.33e6 | 1.34e6 | inactive |
| ZnT33D (Zinc transporter 33D) | 1 | 1.52e5 | 1.99e5 | 1.14e6 | 1.45e6 | inactive |
| dan (distal antenna) | 1 | 75359 | 78680 | 2.79e5 | 3.08e5 | inactive |
| dan (distal antenna) | 2 | 4.18e5 | 5.23e5 | 9.69e5 | 9.69e5 | inactive |
| fmt (fiery mountain) | 1 | 8.15e5 | 8.56e5 | 1.27e6 | 1.55e6 | inactive |
| CG9391 | 1 | 2.02e5 | 1.70e5 | 1.85e6 | 2.20e6 | inactive |
| CG9391 | 2 | – | – | – | – | inactive |
| l(2)k14505 (lethal (2) k14505) | 1 | 8.06e5 | 7.20e5 | 2.10e6 | 2.36e6 | inactive |
| Gapvd1 (GTPase activating protein and VPS9 domains 1) | 1 | 3.72e5 | 3.58e5 | 2.85e6 | 2.98e6 | inactive |
| Gapvd1 (GTPase activating protein and VPS9 domains 1) | 2 | 8.46e5 | 8.49e5 | 1.19e6 | 1.27e6 | inactive |
| asRNA:CR43470 + CG14830 | 1 | 2.33e5 | 1.10e5 | 1.88e6 | 9.76e5 | inactive |
| asRNA:CR43470 + CG14830 | 2 | 4.89e5 | 4.13e5 | 5.52e5 | 6.61e5 | inactive |
| CG6330 | 1 | 69635 | 66026 | 4.86e5 | 5.53e5 | inactive |
| corto | 1 | 9.47e5 | 1.03e6 | 1.16e5 | 1.72e5 | inactive |
| corto | 2 | 3.27e5 | 3.32e5 | 8.36e5 | 5.97e5 | inactive |
| CG6421 | 1 | 53137 | 50148 | 7.62e5 | 7.62e5 | inactive |
| CG6421 | 2 | 3.04e5 | 5.16e5 | 7.18e5 | 7.18e5 | inactive |
| nes (nessy) | 1 | 2.37e5 | 2.04e5 | 1.95e6 | 2.12e6 | inactive |
| kappaTry | 1 | 91495 | 61513 | 9.56e5 | 7.19e5 | inactive |
| CG4892 | 1 | 1.31e5 | 1.25e5 | 1.10e6 | 1.09e6 | inactive |
| THADA | 1 | 7.08e5 | 6.04e5 | 9.13e5 | 7.99e5 | inactive |
| THADA | 2 | 6.40e5 | 6.33e5 | 1.49e6 | 1.50e6 | inactive |
| Rrp42 | 1 | 38733 | 54386 | 1.20e6 | 1.20e6 | inactive |
| CG10222 | 1 | 3.81e5 | 2.30e5 | 3.58e6 | 2.75e6 | inactive |
| CG10222 | 2 | 5.13e5 | 6.62e5 | 1.44e6 | 1.20e6 | inactive |
